PubChem BioAssay AID1259308, NCATS | 2017
This is a random part of about 59,000 reagents tested. About 1,510 of them (2.6%) count as active. 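Calls use total luciferase alone and ignore viability, so some active siRNAs may act by altering cell number.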 Entries without a mark were called inactive. Not all columns of the deposit are shown. Reagent sequences are not shown.

Screen: 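Genes whose loss raises luciferase production in HEK293 cells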 (primary screen)
System: human HEK293 embryonic kidney cells stably expressing firefly luciferase (HEK-CMV-Luc2-Hygro)
Reagents: single siRNA against human genes, 0.8 pmol siRNA per well
Duration: 72 h
Read-out: 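Luciferase light (ONE-Glo) measured on one replicate plate set and viability (CellTiter-Glo) on the other, scaled to a negative control siRNA, with robust z-scores and luciferase per cell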
Direction: total luciferase, z-score and total luciferase, % of control: higher = more reporter protein produced
Hit rule: 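An siRNA counts as active if its total luciferase robust z-score exceeds 3; genes with two or more such siRNAs out of three were retested with fresh siRNAs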
Calls: active = raised luciferase; inactive = no rise

After knock-down of ZNF518B [SID160753331] the results were total luciferase, z-score 0.395; total luciferase, % of control 89.7.
For ZNF518B [SID160753333], the entry reads total luciferase, z-score -0.648; total luciferase, % of control 69.
ZNF518B [SID160753334] gave total luciferase, z-score -0.161; total luciferase, % of control 78.7.
With knock-down of AR [SID160719378], the record shows total luciferase, z-score 0.498; total luciferase, % of control 91.8.
For AR [SID160719389] the deposit lists total luciferase, z-score 0.217; total luciferase, % of control 86.2.
Depletion of AR [SID160719401] gave: total luciferase, z-score -0.0689; total luciferase, % of control 80.5.
KLHL28 [SID160742219] showed total luciferase, z-score 0.791; total luciferase, % of control 97.6.
With knock-down of KLHL28 [SID160742220], the record shows total luciferase, z-score -0.624; total luciferase, % of control 69.5.
KLHL28 [SID160742221] gave total luciferase, z-score 0.626; total luciferase, % of control 94.3.
For TOP3B [SID160721182], the values are total luciferase, z-score 0.483; total luciferase, % of control 91.5.
TOP3B [SID160721183] scored total luciferase, z-score 0.696; total luciferase, % of control 95.7.
Silencing of TOP3B [SID160721184] came out at: total luciferase, z-score -0.209; total luciferase, % of control 77.7.

2 of these entries, reformatted:
gene symbol | PubChem SID | total luciferase, z-score | total luciferase, % of control
TOP3B | SID160721182 | 0.483 | 91.5
TOP3B | SID160721183 | 0.696 | 95.7
